For 1 molecule, binding results are on record in patent publication EP2464369B1.

Results are given in words; binding and its absence hold for the method and conditions named. Some results given as binding are weak or reduced against the parent protein; the word gives no strength.

The assay addresses T1, Growth and Differentiation Factor-11 (GDF11) (UniProt O95390).
T1 sequence (looked up): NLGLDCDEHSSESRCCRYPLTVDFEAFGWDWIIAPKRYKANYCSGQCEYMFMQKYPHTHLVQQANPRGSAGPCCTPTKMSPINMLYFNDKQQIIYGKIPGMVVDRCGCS
The assay is described as follows: Biacore; Fc fusion captured by anti-hFc antibody, ligand injected.

B1: ActRIIB(A24N 20-134)-hFc (Fc fusion, not shown: a dimerising Fc or GST)
chain: GRGENETRECIYYNANWELERTNQSGLERCEGEQDKRLHCYASWRNSSGTIELVKKGCWLDDFNCYDRQECVATEENPQVYFCCCEGNFCNERFTHLPEAGGPEVTYEPPPTAPT
B1: the binding entry is “binds”.
